This note sets out measurements from PubChem BioAssay AID2685 (National Center for Advancing Translational Sciences (NCATS), 2010).

As a reminder, the AC50 is the midpoint of the concentration-response curve, whichever way the signal moves. A high value points to activity only at high concentration.

The test in a line: qHTS Assay for Lipid Storage Modulators in Drosophila S3 Cells.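 For cell number change: cells counted by Cell Tracker Red CMTPX staining in the red channel.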 The note with it: BODIPY lipid droplet fluorescence, 18-24 h; for cell number change: measured here: cell count max response, cells fed with added oleic acid. In a few lines: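 Laser-scanning cytometry quantifies lipid droplet accumulation (500–530 nm total intensity; droplet/cell object ratio) in oleic acid-fed (400 uM added) Drosophila S3 cells treated with a concentration series. 20 uM Triacsin C defined 100% inhibition.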
(qHTS replaces the single test concentration by a dilution series.)

The mark [1] stands for this setting: measured here: cell number channel AC50, cells fed with added oleic acid.
[2] abbreviates: measured here: lipid fluorescence (Fed channel) AC50, cells fed with added oleic acid.

This is one part of the list. These are further read-outs of the screen, such as a control signal, another cell line or another target. No call is given for them. Compounds called inactive in the main read-out are mostly missing here. The note in brackets gives the kind of curve behind each potency; many fits are weak.

Turning to `CCN(C(=O)CSc1ncccc1C(=O)OC(C)C)c1cccc(C)c1`, the cell number change was 1.19%.
As for `CN(C)/C=C1\N=C(c2ccc(Cl)cc2Cl)OC1=O`, the concentration at half-maximal activity (AC50) reads like this: under setting [1], 0.366 µM [rising, partial curve, poor fit]; under setting [2], 6.51 µM [rising, partial curve].
Turning to `CCCN1CCN(C(=O)c2cc3c(s2)-c2ccccc2S(=O)(=O)C3)CC1`, the cell number change is 7.59%.
`Cc1ccc(-c2nnn(CC(=O)N(CCCO)C(C(=O)NC3CCCC3)c3ccc(Cl)cc3)n2)o1` (centres undefined): the cell number change stood at 3.95%.
Turning to `COc1ccc(/C=C/C(=O)NC(=S)NNC(=O)Cc2cccs2)cc1`, the cell number change was 53.9%. In addition, the concentration at half-maximal activity (AC50) under setting [1] was 16.4 µM [rising, single point]. The half-maximal activity concentration (AC50) under setting [2] was 29.1 µM [rising, single point].
Take `CCCC1(c2ccccc2)NC(=O)N(CC(=O)Nc2cc(OC)cc(OC)c2)C1=O` (centres undefined): the cell number change is -0.952%.
For `COc1ccc(CNC(=O)c2c(-c3cc(Cl)c(OC)c(Cl)c3)noc2C)cc1`, the cell number change is 52%. The half-maximal activity concentration (AC50) under setting [1] was 2.31 µM [rising, full curve]. Under setting [2], the concentration at half-maximal activity (AC50) was 2.31 µM [rising, full curve].
For the molecule `COc1ccc(O[C@H]2C=C[C@@H](c3ccccc3)O[C@@H]2CO/N=C/C[C@@H]2C=C[C@H](OC(C)=O)[C@@H](COC(C)=O)O2)cc1`, the cell number change came to 8.65%. The concentration at half-maximal activity (AC50) under setting [1] is 1.84 µM [rising, partial curve, poor fit]. Moreover, the AC50 under setting [2] was 6.51 µM [rising, partial curve].
For the molecule `CN1CCC(N(C)C(=O)NC2CCCCC2)CC1`, the cell number change is -41.4%. For the same molecule, the AC50 under setting [1] was 0.411 µM [falling, partial curve]. For the same molecule, the concentration at half-maximal activity (AC50) under setting [2] is 1.3 µM [falling, full curve].
Consider `CCOc1ccc(CCNC(=O)COC(=O)c2ccc(S(C)(=O)=O)cc2)cc1OCC`, for which the cell number change was -46.3%. Under setting [1], the AC50 was 29.1 µM [falling, single point]. In addition, the half-maximal activity concentration (AC50) under setting [2] was 18.4 µM [falling, partial curve].
Turning to `COc1ccc(N(CC(=O)NCc2ccc(Cl)cc2)S(=O)(=O)c2c(C)n[nH]c2C)cc1`, the cell number change was determined as 9.16%. Moreover, the AC50 under setting [2] was 29.1 µM [rising, single point].
As for `CC(NCc1ccc2c(c1)OCO2)C(=O)NC1CCCc2ccccc21` (centres undefined), the cell number change was found to be 57%. For the same molecule, the AC50 under setting [1] was 8.2 µM [rising, partial curve]. Also, the AC50 under setting [2] is 6.51 µM [rising, single point].
Turning to `Cc1ccc2oc(-c3ccco3)cc(=O)c2c1`, the cell number change was -0.894%. The concentration at half-maximal activity (AC50) under setting [2] is 0.259 µM [rising, partial curve, poor fit].
As to `COC(=O)c1nn(-c2ccccc2)c(=O)cc1Oc1ccccc1`, the cell number change amounted to 41.4%. Further, the concentration at half-maximal activity (AC50) under setting [1] is 32.6 µM [rising, single point].
On to `CC(C)c1ccc(/C=N/NC(=O)C(=O)NCCCN2CCOCC2)cc1`, for which, under setting [2], the AC50 was 6.51 µM [falling, single point].
As to `COC(=O)COc1ccc2oc(=O)cc(C)c2c1`, the concentration at half-maximal activity (AC50) under setting [2] was 18.4 µM [falling, single point].
Consider `O=C(CN(c1ccccc1)S(=O)(=O)c1ccc(F)cc1)NC1CCCCCC1`, for which the cell number change is 16.5%.
For the molecule `Cc1cc(C)n2nc(C(=O)OCC(=O)N(CC(C)C)CC(C)C)nc2n1`, the cell number change came out at 4.58%. Besides, the AC50 under setting [2] is 6.31 µM [rising, single point].
Consider `COc1ccc(OCC(=O)OCC(=O)NC2CC2)cc1`, for which the cell number change came to 1.74%. Also, the AC50 under setting [2] was 0.116 µM [falling, full curve, poor fit].
With `Nc1ccccc1N=Cc1ccc(-c2cccc(Cl)c2)o1`, the cell number change is -25.2%. Moreover, the half-maximal activity concentration (AC50) under setting [2] is 29.1 µM [falling, single point].
For `COc1ccc(C(Sc2ccccc2)c2ccccc2)cc1OC` (centres undefined), the AC50 reads like this: under setting [1], 0.00517 µM [falling, full curve, poor fit]; under setting [2], 0.00461 µM [falling, full curve, poor fit].
Take `CC(C)(C)c1ccc(C(=O)NCCC(=O)N2CCC3(CC2)NCCc2[nH]cnc23)cc1`: the cell number change turned out to be 17.2%. Also, under setting [2], the half-maximal activity concentration (AC50) is 2.59 µM [rising, full curve].
Consider `NC(=O)CSc1nnc(-c2ccc(S(=O)(=O)N3CCCC3)cc2)n1CC1CCCO1` (centres undefined), for which the cell number change is 8.09%. Moreover, under setting [2], the AC50 is 0.651 µM [falling, full curve].
Take `COc1ccc(S(=O)(=O)N2CCOCC2)cc1NC(=O)CN1CCC(Cc2ccccc2)CC1`: the cell number change came out at 21.7%. For the same molecule, the AC50 under setting [2] was 2.06 µM [rising, partial curve].
`CC1=CC(C)(C)Nc2ccc(OC(=O)C(Cc3ccccc3)N3C(=O)C4CCCCC4C3=O)cc21` (centres undefined): the cell number change was -10.4%. The AC50 under setting [2] was 4.61 µM [rising, single point].
As to `Cc1sc2c(c1C)CN(C(C)(C)C)CN2C(=O)c1ccccc1`, the cell number change came to 13.5%. The AC50 under setting [2] was 6.51 µM [rising, single point].
Regarding `O=C(CN1CCN(C(c2ccccc2)c2ccccc2)CC1)N1CCOCC1`, the cell number change was determined as 2.39%. Further, the AC50 under setting [2] was 0.326 µM [falling, full curve, poor fit].
With `Cc1cc(NC(=O)CCCS(=O)(=O)c2nc(-c3cccs3)cc(C(F)(F)F)n2)no1`, the cell number change was -56.6%. The half-maximal activity concentration (AC50) under setting [1] was 13 µM [falling, partial curve]. For the same molecule, under setting [2], the AC50 was 2.59 µM [falling, partial curve].
As for `NC(=O)C1CCN(C2OC(=O)c3ccccc32)CC1` (centres undefined), the cell number change was -8.68%. Under setting [2], the half-maximal activity concentration (AC50) is 0.103 µM [rising, full curve, poor fit].
`O=C(Nc1ccc2c(c1)OCO2)c1cc(-c2cccnc2)nc2ccccc12`: the concentration at half-maximal activity (AC50) under setting [2] is 5.8 µM [rising, single point].
For the molecule `Cc1ccc(C(=O)N2CCCC(C(=O)c3cc(F)ccc3F)C2)s1` (centres undefined), the cell number change was -17.2%.
For the molecule `O=C(CN1C(=O)c2ccccc2C1=O)N1CCN(c2ccccc2)CC1`, the cell number change is -1.88%. Also, the half-maximal activity concentration (AC50) under setting [2] is 18.4 µM [rising, single point].
Take `C/C=C/Cn1c(SCc2ccccc2)nc2c1c(=O)[nH]c(=O)n2C`: the cell number change is -19.5%.
As for `O=C(/C=C/c1ccco1)Nc1cccc2cccnc12`, the cell number change was -0.601%.
In the case of `C=CCNc1cnn(CC(C)=O)c(=O)c1Br`, the cell number change was -66.6%. Moreover, under setting [1], the AC50 is 29.1 µM [falling, single point].
In the case of `CC1CC(C)CN(S(=O)(=O)c2ccc(C(=O)N3CCN(c4ccccc4)CC3)cc2)C1` (centres undefined), the cell number change was -34.2%. Besides, the AC50 under setting [1] is 29.1 µM [falling, single point].
On to `O=C1CC(=O)N(c2cccc(F)c2)N1`, for which the concentration at half-maximal activity (AC50) is, setting by setting: under setting [1], 3.66 µM [falling, partial curve]; under setting [2], 4.11 µM [falling, single point].
Consider `O=C(Cc1ccc(O)cc1)N/N=C/c1cccnc1`, for which the cell number change is 32.1%. For the same molecule, under setting [1], the half-maximal activity concentration (AC50) is 23.1 µM [rising, single point]. Also, under setting [2], the AC50 was 18.4 µM [rising, partial curve].
`CC(=O)N1CCN(c2ccc(NC(=O)c3cccc(Cl)c3)cc2)CC1`: the cell number change is 16.1%.
With `CCN(CC)S(=O)(=O)c1ccc2oc(C(=O)NCc3ccc(F)cc3)c(C)c2c1`, the cell number change was -8.02%. Besides, the AC50 under setting [2] was 2.91 µM [rising, partial curve].
Regarding `CC(C)Cc1nnc(NC(=O)CCC(=O)N2CCC(C)CC2)s1`, the cell number change was -12.3%.
As for `Cc1cccc(C2=N/C(=C\c3cccnc3)C(=O)O2)c1`, the cell number change is 40.1%. Moreover, the AC50 under setting [1] is 5.17 µM [rising, full curve, poor fit]. Further, the concentration at half-maximal activity (AC50) under setting [2] was 29.1 µM [rising, single point].
Regarding `COc1ccc(N(CC(=O)NC2CCCCC2)S(=O)(=O)c2cccnc2)cc1`, the cell number change is -16.5%.
On to `O=C(Nc1ccc(-c2nc3ccccc3[nH]2)cc1)c1cccc(N2C(=O)CCC2=O)c1`, for which the cell number change came out at 3.29%. Also, the AC50 under setting [2] is 0.411 µM [rising, single point].
For the molecule `O=C(COC(=O)/C=C/c1ccccc1[N+](=O)[O-])NCC(F)(F)F`, the cell number change was 2.44%.
Turning to `COc1cc(/C=C/C(=O)OCC(=O)NCCc2ccccc2)ccc1OC(F)F`, the AC50 under setting [1] was 0.00651 µM [rising, full curve, poor fit].
With `O=C(/C(=C\c1ccccc1)c1nc2ccccc2[nH]1)c1ccc(Cl)cc1`, the cell number change is -61.7%. Moreover, the AC50 under setting [1] is 14.6 µM [falling, partial curve]. Besides, under setting [2], the AC50 was 8.2 µM [falling, partial curve].
Take `O=C(CN1CCN(C(=O)c2cncn2-c2ccccc2)CC1)Nc1ccccc1Cl`: the cell number change is -2.54%. In addition, the half-maximal activity concentration (AC50) under setting [2] is 13 µM [rising, partial curve, poor fit].
In the case of `CN1CCN(C2CC(=O)N(CCc3ccccc3)C2=O)CC1` (centres undefined), the cell number change was -23.9%.
On to `O=C(/C=C/c1ccccc1Cl)OCC(=O)c1ccc[nH]1`, for which the cell number change was -14.8%. Further, the AC50 under setting [2] was 6.51 µM [falling, single point].
As for `CCCCC(SCC(=O)Nc1ccccc1)C(=O)O` (centres undefined), the cell number change was -85.3%. The AC50 under setting [2] was 29.1 µM [falling, single point].
For the molecule `CCN(Cc1ccccc1)S(=O)(=O)c1ccc2c(c1)NC(=O)CS2`, the AC50 under setting [2] is 29.1 µM [falling, single point].
For the molecule `COc1cc(C(=O)NCCC(=O)NCCN2CCOCC2)cc(OC)c1OC`, the cell number change is 1.91%. Under setting [2], the AC50 is 2.91 µM [falling, full curve].
As for `COc1ccccc1CN1CN(S(=O)(=O)c2ccccc2)c2nc3ccccc3nc21`, the cell number change worked out at 0.534%. Further, under setting [2], the half-maximal activity concentration (AC50) was 29.1 µM [rising, single point].
As for `COc1ccc(Nc2ccc(OC)cc2)cc1`, the cell number change came out at 0.0184%. For the same molecule, the half-maximal activity concentration (AC50) under setting [2] was 29.1 µM [falling, single point].
With `COC(CNc1ncnc2c1cnn2C)OC`, the cell number change was -11.2%. Besides, the AC50 under setting [2] was 0.00461 µM [rising, full curve, poor fit].
With `COc1ccc(C(CNC(=O)C(C)(C)Oc2ccc(Cl)cc2)N2CCCC2)cc1` (centres undefined), the cell number change is -4.41%.
On to `O=C(O)CC(=O)Nc1ccccc1C(=O)O`, for which the cell number change is -35.3%. Besides, under setting [2], the AC50 was 0.00517 µM [falling, full curve, poor fit].
Take `CCC(C)(C)n1nnnc1C(c1cc2cc(C)cc(C)c2[nH]c1=O)N1CCN(Cc2ccc3c(c2)OCO3)CC1` (centres undefined): the cell number change was determined as 115%. Under setting [1], the AC50 is 4.11 µM [rising, partial curve]. Moreover, under setting [2], the concentration at half-maximal activity (AC50) is 4.11 µM [rising, single point].
For `COc1ccc(CN2CC(C(=O)NCCN3CCOCC3)CC2=O)cc1` (centres undefined), the cell number change was -32%. Further, the AC50 under setting [1] is 2.59 µM [falling, full curve]. For the same molecule, the AC50 under setting [2] is 3.66 µM [falling, full curve].
With `Cc1ccc(NC(=O)c2cccc(S(=O)(=O)N3CCN(c4ccccc4)CC3)c2)nc1`, the cell number change was -12.7%.
